Measurements from PMC8131325.
Results are given in words; binding and its absence hold for the method and conditions named. For part of these data: In cells and extracts the contact can be indirect. Some entries that bind do so weakly or less than the wild type.

Legend:
[1] = molecular target: FABP3 with N-terminal His6 tag (UniProt P05413); assay: quartz crystal microbalance (QCM); His6-FABP3 (or FABP3 F16S) immobilised on the gold-plated quartz sensor through Ni-NTA groups; αSyn, its variants or peptides added at varying concentrations; room temperature; 50 mM Tris-HCl pH 7.4; kobs = koff + kon[αSyn], Kd from kon and koff (AQUA 2.0); both purified
FABP3-mCherry = FABP3-mCherry (UniProt P05413); assay: FRET or BRET; competition: 50 μM synthetic αSynP130-140 added to the culture of N2a cells co-expressing GFP-αSyn and FABP3-mCherry; loss of the FRET signal; only the binder purified

binding [1]	binding (FABP3-mCherry)	Binder
no binding	–	DVFMKGLSKA [αSynP2-10]
no binding	–	GVTAVAQKTVEGAGSIAAATGFVK [αSynP73-96]
–	binds	EEGYQDYEPEA [αSynP130-140]
